According to patent US20080227698A1, “OLIGOPEPTIDES FOR TREATMENT OF OSTEOPOROSIS AND OTHER BONE DISEASES AND METHODS THEREOF” (Washington University, priority 2005, published 2008):
Results are given in words; binding and its absence hold for the method and conditions named. Some results given as binding are weak or reduced against the parent protein; the word gives no strength. For some of these results: Sequences can lack the tags named with a protein.

By UniProt entry, the sequences of proteins in these tests, tags left out. Residues count along the entry.
UniProt O75197, residues 32-1615: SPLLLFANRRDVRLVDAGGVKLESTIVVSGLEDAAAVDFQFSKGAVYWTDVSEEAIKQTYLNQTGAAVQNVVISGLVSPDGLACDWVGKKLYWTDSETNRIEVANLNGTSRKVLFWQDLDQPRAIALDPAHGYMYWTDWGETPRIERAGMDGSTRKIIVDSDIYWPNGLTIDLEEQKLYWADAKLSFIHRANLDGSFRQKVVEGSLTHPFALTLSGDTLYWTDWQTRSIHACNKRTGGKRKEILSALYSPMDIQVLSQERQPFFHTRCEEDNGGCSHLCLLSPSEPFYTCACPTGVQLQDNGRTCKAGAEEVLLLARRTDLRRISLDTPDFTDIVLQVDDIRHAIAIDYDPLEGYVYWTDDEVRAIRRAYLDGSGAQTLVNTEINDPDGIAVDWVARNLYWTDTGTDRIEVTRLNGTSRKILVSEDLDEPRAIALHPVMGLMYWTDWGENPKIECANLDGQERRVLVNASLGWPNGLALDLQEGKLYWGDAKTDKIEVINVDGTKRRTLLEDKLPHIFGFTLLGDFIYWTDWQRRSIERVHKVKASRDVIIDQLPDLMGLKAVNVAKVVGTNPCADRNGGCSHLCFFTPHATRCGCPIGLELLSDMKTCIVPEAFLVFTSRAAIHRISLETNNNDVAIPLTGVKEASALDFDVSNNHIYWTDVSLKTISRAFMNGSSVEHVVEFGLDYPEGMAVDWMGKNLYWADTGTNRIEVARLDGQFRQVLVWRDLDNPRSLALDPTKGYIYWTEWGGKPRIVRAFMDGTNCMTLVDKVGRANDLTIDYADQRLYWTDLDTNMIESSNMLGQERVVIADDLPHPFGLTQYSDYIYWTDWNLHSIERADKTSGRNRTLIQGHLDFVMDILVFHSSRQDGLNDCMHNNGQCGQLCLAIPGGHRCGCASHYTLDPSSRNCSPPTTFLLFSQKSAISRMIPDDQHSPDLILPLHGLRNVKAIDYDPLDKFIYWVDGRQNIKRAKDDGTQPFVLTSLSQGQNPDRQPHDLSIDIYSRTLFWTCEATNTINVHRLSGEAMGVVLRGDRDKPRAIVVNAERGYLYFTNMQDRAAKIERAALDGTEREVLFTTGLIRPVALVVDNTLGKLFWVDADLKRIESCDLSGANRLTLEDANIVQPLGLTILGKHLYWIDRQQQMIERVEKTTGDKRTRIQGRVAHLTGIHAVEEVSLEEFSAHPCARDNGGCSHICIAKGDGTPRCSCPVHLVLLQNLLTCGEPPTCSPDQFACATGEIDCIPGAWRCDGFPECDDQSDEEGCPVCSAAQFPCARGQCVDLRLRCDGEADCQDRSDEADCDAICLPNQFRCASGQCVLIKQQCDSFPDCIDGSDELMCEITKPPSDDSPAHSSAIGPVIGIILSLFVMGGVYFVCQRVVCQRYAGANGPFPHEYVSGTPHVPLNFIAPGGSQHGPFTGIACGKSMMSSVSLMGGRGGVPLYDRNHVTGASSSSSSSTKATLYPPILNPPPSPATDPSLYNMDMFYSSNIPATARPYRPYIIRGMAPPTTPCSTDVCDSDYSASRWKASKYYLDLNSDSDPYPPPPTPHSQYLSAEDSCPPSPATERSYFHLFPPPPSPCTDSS
UniProt O75581, residues 20-1613: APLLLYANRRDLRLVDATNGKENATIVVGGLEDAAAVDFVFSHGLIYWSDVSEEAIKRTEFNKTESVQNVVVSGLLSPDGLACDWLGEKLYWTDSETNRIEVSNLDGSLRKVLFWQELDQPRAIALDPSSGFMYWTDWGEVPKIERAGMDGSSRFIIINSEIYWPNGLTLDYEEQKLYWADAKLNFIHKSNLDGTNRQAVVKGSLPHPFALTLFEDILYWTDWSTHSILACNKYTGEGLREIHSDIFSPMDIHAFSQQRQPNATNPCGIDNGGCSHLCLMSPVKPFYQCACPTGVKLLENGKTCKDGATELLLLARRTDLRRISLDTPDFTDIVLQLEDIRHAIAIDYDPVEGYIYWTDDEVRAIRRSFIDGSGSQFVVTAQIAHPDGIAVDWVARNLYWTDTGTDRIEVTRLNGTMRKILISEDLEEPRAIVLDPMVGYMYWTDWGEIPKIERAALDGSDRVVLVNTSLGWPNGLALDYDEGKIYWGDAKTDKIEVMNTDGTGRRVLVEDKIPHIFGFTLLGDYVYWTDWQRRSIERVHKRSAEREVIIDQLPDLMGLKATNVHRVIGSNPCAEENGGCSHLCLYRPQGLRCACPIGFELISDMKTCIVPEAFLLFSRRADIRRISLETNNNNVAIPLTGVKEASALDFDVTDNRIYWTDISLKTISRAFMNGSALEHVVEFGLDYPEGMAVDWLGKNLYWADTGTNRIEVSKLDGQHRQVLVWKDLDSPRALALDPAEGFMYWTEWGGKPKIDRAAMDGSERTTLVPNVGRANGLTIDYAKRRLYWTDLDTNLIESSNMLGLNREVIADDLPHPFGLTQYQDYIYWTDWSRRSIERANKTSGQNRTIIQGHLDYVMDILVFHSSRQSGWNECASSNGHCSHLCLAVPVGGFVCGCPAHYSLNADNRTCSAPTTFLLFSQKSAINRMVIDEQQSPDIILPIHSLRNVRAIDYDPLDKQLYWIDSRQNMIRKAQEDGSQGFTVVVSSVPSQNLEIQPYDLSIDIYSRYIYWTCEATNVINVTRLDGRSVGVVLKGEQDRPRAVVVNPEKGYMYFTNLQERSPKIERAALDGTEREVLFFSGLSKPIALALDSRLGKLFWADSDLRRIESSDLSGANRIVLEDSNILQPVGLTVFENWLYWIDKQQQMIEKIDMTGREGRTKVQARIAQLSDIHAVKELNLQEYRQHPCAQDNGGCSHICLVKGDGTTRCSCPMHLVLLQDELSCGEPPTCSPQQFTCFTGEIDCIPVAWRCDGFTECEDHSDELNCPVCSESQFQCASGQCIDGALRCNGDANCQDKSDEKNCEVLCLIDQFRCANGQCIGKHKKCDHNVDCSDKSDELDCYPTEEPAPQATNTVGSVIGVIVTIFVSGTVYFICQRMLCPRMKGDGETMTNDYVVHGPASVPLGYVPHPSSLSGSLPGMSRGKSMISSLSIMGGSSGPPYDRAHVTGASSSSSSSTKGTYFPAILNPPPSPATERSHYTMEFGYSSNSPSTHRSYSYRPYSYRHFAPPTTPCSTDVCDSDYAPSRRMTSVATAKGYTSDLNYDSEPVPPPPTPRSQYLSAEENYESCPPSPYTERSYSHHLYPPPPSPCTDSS

Legend:
[1] = target: human Myc-tagged LRP5 on transiently transfected HEK293 cells (human) (UniProt O75197); assay: competition binding assays with 125I-Mesd and 125I-DKK1 (FIG. 10)
[2] = target: LRP6 on LRP6-transduced HT1080 cells (HA-tagged) (UniProt O75581); assay: competition against 125I-Mesd for LRP6 (FIG. 10C)
[3] = target: LRP6 on LRP6-transduced HT1080 cells (HA-tagged) (UniProt O75581); assay: time course of 125I-Mesd binding to LRP6-transduced HT1080 cells
[4] = target: human Myc-tagged LRP6 on transiently transfected HEK293 cells (human) (UniProt O75581); assay: 125I-Mesd binding to transfected cells (FIG. 2)
[5] = target: human Myc-tagged LRP5 on transiently transfected HEK293 cells (human) (UniProt O75197); assay: 125I-Mesd binding to transfected cells (FIG. 2)
[6] = target: human Myc-tagged LRP6 on transiently transfected HEK293 cells (human) (UniProt O75581); assay: 125I-Mesd (5 nM) binding to transiently transfected HEK293 cells
[7] = target: human Myc-tagged LRP5 on transiently transfected HEK293 cells (human) (UniProt O75197); assay: as above
[8] = target: LRP6 on LRP6-transduced HT1080 cells (HA-tagged) (UniProt O75581); assay: 125I-Mesd binding to LRP6-transduced HT1080 cells (FIG. 1)
[9] = target: human Myc-tagged LRP6 on transiently transfected HEK293 cells (human) (UniProt O75581); assay: 125I-Mesd (5 nM) binding to transiently transfected HEK293 cells (FIG. 2A)
[10] = target: human Myc-tagged LRP5 on transiently transfected HEK293 cells (human) (UniProt O75197); assay: as above
[11] = target: LRP6 on LRP6-transduced HT1080 cells (HA-tagged) (UniProt O75581); assay: binding of truncated Mesd mutants to cell surface LRP6 (FIG. 3B)
[12] = target: LRP6 on LRP6-transduced HT1080 cells (HA-tagged) (UniProt O75581); assay: immunofluorescence with anti-Myc antibody of conditioned-medium Myc-DKK1 bound to LRP6-transduced HT1080 cells
[13] = target: LRP6 on LRP6-transduced HT1080 cells (HA-tagged) (UniProt O75581); assay: 125I-DKK1 (5 nM) binding to LRP6-transduced HT1080 cells, 3 h at 4 C

Measured: binding

B1: recombinant mouse Mesd protein (wild type) (protein, not shown: small tags and cut ends)
chain: ADTPGEATPPPRKKKDIRDYNDADMARLLEQWEKDDDIEEGDLPEHKRPSAPIDFSKLDPGKPESILKMTKKGKTLMMFVTVSGNPTEKETEEITSLWQGSLFNANYDVQRFIVGSDRAIFMLRDGSYAWEIKDFLVSQDRCAEVTLEGQMYPGKGGGSKEKNKTKPEKAKKKEGDRKPRASKEDNRAGSRREDL
modifications: 125I-iodinated (IODO-GEN) when used as radioligand
not listed: [11] | [12] | [13]
binds: all other assays above

B2: Mesd(12-195) (protein, not shown: small tags and cut ends)
chain: RKKKDIRDYNDADMARLLEQWEKDDDIEEGDLPEHKRPSAPIDFSKLDPGKPESILKMTKKGKTLMMFVTVSGNPTEKETEEITSLWQGSLFNANYDVQRFIVGSDRAIFMLRDGSYAWEIKDFLVSQDRCAEVTLEGQMYPGKGGGSKEKNKTKPEKAKKKEGDRKPRASKEDNRAGSRREDL
modifications: 125I-iodinated when used as radioligand
binds: [11]

B3: human Myc-tagged DKK1 (conditioned medium of transfected HEK293 cells) (ligand, UniProt O94907 32-266, looked up, not shown: small tags and cut ends)
chain: TLNSVLNSNAIKNLPPPLGGAAGHPGSAVSAAPGILYPGGNKYQTIDNYQPYPCAEDEECGTDEYCASPTRGGDAGVQICLACRKRRKRCMRHAMCCPGNYCKNGICVSSDQNHFRGEIEETITESFGNDHSTLDGYSRRTTLSSKMYHTKGQEGSVCLRSSDCASGLCCARHFWSKICKPVLKEGQVCTKHRRKGSHGLEIFQRCYCGEGLSCRIQKDHHQASNSSRLHTCQRH
binds: [12]

B4: human recombinant DKK1 protein (R&D Systems) (ligand, UniProt O94907 32-266, looked up)
chain: B3 chain
modifications: 125I-iodinated
binds: [13]
